Experimental data as given in patent US20230183237A1, “COMPETITIVE AND NONCOMPETITIVE INHIBITORS OF THE MUSCARINIC ACETYLCHOLINE RECEPTOR M5” (Vanderbilt University, priority 2020, published 2023).

Chains of the proteins cited; added tags and fusions are not shown.
UniProt P08912, whole entry: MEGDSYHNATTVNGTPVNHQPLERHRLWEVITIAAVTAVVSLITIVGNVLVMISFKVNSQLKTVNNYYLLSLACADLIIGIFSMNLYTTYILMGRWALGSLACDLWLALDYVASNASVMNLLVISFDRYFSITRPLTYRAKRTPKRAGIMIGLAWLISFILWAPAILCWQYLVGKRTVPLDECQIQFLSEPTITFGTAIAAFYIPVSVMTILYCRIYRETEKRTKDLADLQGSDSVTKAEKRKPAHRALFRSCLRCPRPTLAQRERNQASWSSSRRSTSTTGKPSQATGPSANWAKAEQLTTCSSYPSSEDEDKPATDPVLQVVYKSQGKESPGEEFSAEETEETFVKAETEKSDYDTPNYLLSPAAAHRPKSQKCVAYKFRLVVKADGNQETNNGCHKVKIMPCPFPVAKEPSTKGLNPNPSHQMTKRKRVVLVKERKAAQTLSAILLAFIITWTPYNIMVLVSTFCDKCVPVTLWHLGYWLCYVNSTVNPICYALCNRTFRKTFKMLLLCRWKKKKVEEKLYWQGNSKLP

Target: hM5 (Homo sapiens, UniProt P08912)
Experiment: Calcium mobilization concentration-response (IC50 vs EC80 acetylcholine), CHO hM5
Format: cell-based
Settings: CELL LINE hM5

Question: With `Cc1nc2ncnn2cc1C1CCN(S(=O)(=O)c2cnn(C)c2C)CC1` as the molecule, how does the IC50 (calcium mobilization, EC80 acetylcholine addition) read?
Answer: 63 nM

Question: What about the “EC50 MIN (%)” value (minimum response, percent of maximum acetylcholine response) of the same molecule?
Answer: 2%

The match of structure and compound is tentative.
